According to the RNAGym collection of RNA variant scans (doi:10.1126/science.aae0568):
Variants at the floor of the assay are shown more often than the library holds them.

B1: tRNA (parent)
chain: GUUCCGUUGGCGUAAUGGUAACGCGUCUCCCUCCUAAGGAGAAGACUGCGGGUUCGAGUCCCGUACGGAACG

Variants of: B1
Experiment: yeast fitness relative to wild type (ratio to wild type); higher = fitter; tRNA-Arg(CCU), competitive growth, 37 C, YPD
In short: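 Amplicons of the tRNA-Arg(CCU) gene were sequenced, 100-nucleotide paired-end, from the start population and from each end population of a pooled yeast competition. The competition, in six parallel replicates, lasted 24 hours in YPD at 37°C. Fitness relative to wild type was calculated from changes in genotype frequencies. Genotypes had to have ≥ 100 starting reads, and estimates < 0.5 were set to 0.5.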

First: GUUCGGUUGGCGUAAUGGUAACGCGUCGCCUUCCUAAGGAGAAGACUGCGAGUACGAGACCCGUACGGAACG [C5G U28G C31U G51A U54A U59A]
Second: GUUCGGUUGGCGUAAUGGUAACGCGUCUCCCUCCAAAGGGGAAGACUGCGGGUUCGAGUCCCGUACGGAACG [C5G U35A A40G]
The yeast fitness of the first is higher: 0.522 for the first, ≤ 0.5 for the second.

First: GUUCGGUUGGCGUAAUGGUAACGCGUCUCCCUCCAAAGGAGAAGACUGCGGGUUCGAGUCCUGUACGGAACG [C5G U35A C62U]
Second: GUUCGGUUGGCGUAAUGGUAACGCGUCUCCCUCCUAAGGAGAAGACCGCGGGUUCGAGUCCCGUAUGGAACG [C5G U47C C66U]
The yeast fitness of the first is lower: ≤ 0.5 for the first, 0.627 for the second.

Compared with GUUCGGUUGGCGUAAUGGUAACGCGUCUCCCUCCUAAGGAGAAGACUGCGGGAUCGAGUCCGGUACGGAACG [C5G U53A C62G], GUUCUGUUGGCGUCAUGGUAACGCGUCUCCCUCCUAAGGAGAAGACUGCGGGUUCGAGUCCCGUACGGAACG [C5U A14C] is higher in yeast fitness: ≤ 0.5 for the first, 0.593 for the second.

GUUCUGUUGGCGUCAUGGUAACGCGUCUCCCUCGUAUGGUGAAGACUGCGGGUUCCAGUCCCGUACGGAACG [C5U A14C C34G A37U A40U G56C] and GUUCUGUUGGCGUAGUGGUAACGCGUCUCACUGCUAAGGAGAAGUCUGCGGGUUCGAGCCCCGUACGGAACG [C5U A15G C30A C33G A45U U59C] cannot be ordered by yeast fitness: ≤ 0.5 for the first, ≤ 0.5 for the second.

GUUCUGUUGGCGUAAUGGUCUCGCGUCUCCCUCCUAAGGAGAAGACUGCGGGCUCGAGUCCCGAACGGAACG [C5U A20C A21U U53C U64A] and GUUCUGUUGGCGUAAUGGUCACACGUCUCCCUCCUGAGGAGAAGACUGCGGCUUCGAGUCCCGUACGGAACG [C5U A20C G23A A36G G52C] cannot be ordered by yeast fitness: ≤ 0.5 for the first, ≤ 0.5 for the second.

GUUCUGUUGGCGUAAUGGUUACGUGUUUCCCUCCUAAGGAGAAGACUGCGGGUUCGAGUCCCGUACGGAACG [C5U A20U C24U C27U] and GUUCUGUUGGCGUAAUGGUUACGCGUCGCCCGCGUAAGGAGAAGACUGCGGGUUCGAGUCCCGUACGGAACG [C5U A20U U28G U32G C34G] cannot be ordered by yeast fitness: ≤ 0.5 for the first, ≤ 0.5 for the second.

GUUCUGUUGGCGUAAUGGUAUCGCGUCUCCCUCCUAAGGAGAAGACUGCGGGUUCGUGUACCGUACGGAACG [C5U A21U A57U C60A] and GUUCUGUUGGCGUAAUGGUAACGCGUCUCCCUCCUAAGGUGAAGACUGCGGGUUCGAGUCCCGUACCGAACG [C5U A40U G67C] cannot be ordered by yeast fitness: ≤ 0.5 for the first, ≤ 0.5 for the second.

Going from GUUCUGUUGGCGUAAUGGUAACGCGUCUCCCUCCUAAGGAGAAGCCUGCGGGUUCCAGUCCCGUACGGAACG [C5U A45C G56C] to GUUCUGUUGGCGUAAUGGUAACGCGUCUCCCUCCUAAGGAGAAGUCUGCGGGUUCGAGUCCCGUACUGGACG [C5U A45U G67U A69G], the yeast fitness falls from 0.572 to ≤ 0.5.

GUUCUGUUGGAGUGAUGGUAACGCGUCUCCCUCCUAAGGAGGAGACUGCGGGUUUGAGUCCCGUACGGAACG [C5U C11A A14G A42G C55U] and GUUCUGUUGGAGUAAUGGUAACGCGUCUCCCUCCUACGGAGAAGACUGCGGGUUCGAGUCCCGUACGGAACG [C5U C11A A37C] cannot be ordered by yeast fitness: ≤ 0.5 for the first, ≤ 0.5 for the second.

GUUCUGUUGGGGUAAUGGUAACGCGUCUACCUCCUAAGGAGAAGAAUGCGGGUUCGAGUCCCGUACGCAACG [C5U C11G C29A C46A G68C] and GUUCUGUUGGUGUAAUGGUAACGCGUCUCCCUCCUUAGGAGAAGACUGCGGGUUCGAGUCCCGUACGGAACG [C5U C11U A36U] cannot be ordered by yeast fitness: ≤ 0.5 for the first, ≤ 0.5 for the second.

Compared with GUUCUGUUGGUGUAAUGGUAACGCGUCUCCCUCAUAAGGAGAAGACUGCGGGUUCGAGUCCCGUACGGAACG [C5U C11U C34A], GUUCUGUUGGCGUAAUGGUAAAGCGUCUCCCUCCUAAGGAGAAGCCUGCGGGUUCGAGUCCCGUACGGAACG [C5U C22A A45C] is higher in yeast fitness: 0.558 for the first, 0.564 for the second.

GUUCUGUUGGCGUAAUGGUAAAGCGUCUCCCUCCUAAGGAGAAGACUGCGGGUUCGUGUCCCGUACGGAACG [C5U C22A A57U] and GUUCUGUUGGCGUAAUGGUAAGGCGUCUCCCUCCUCAGGAGAAGACUGCGGGUUCGUGUCACGUAGGGAACG [C5U C22G A36C A57U C61A C66G] cannot be ordered by yeast fitness: ≤ 0.5 for the first, ≤ 0.5 for the second.

GUUCUGUUGGCGUAAUGGUAAUGCGUCUCCCUCCUACGGAGAAGACUGCGGGUUCGAGUCCCGUACGGAACG [C5U C22U A37C] and GUUCUGUUGGCGUAAUGGUAAUGCGUCUCCCUCCUAAGGAGAAGACUGCGGACUCGAGGCGUGUACGGAACG [C5U C22U G52A U53C U59G C61G C62U] cannot be ordered by yeast fitness: ≤ 0.5 for the first, ≤ 0.5 for the second.

GUUCUGUUGGCGUAAUGGUAACGAGUCUCCCUCCUAAGCAGAAGACUGCGGGUUCGAGUCCCGUACGGACCG [C5U C24A G39C A70C] and GUUCUGUUGGCGUAAUGGUAACGUGUCCCACUCCUAAGGAGAAGACUGCGGGUUCGAGUCCCGUACGGAACG [C5U C24U U28C C30A] cannot be ordered by yeast fitness: ≤ 0.5 for the first, ≤ 0.5 for the second.

GUUCUGUUGGCGUAAUGGUAACGCGUGUCCCUCCUAAGGAGAAGACCGCGGGUUCGAGUCCCGUACGGAUCG [C5U C27G U47C A70U] and GUUCUGUUGGCGUAAUGGUAACGCGUCUUCCUCCUAAGGAGAAGACUGCGGGUUCGAGUCCGGUACGGAACG [C5U C29U C62G] cannot be ordered by yeast fitness: ≤ 0.5 for the first, ≤ 0.5 for the second.

GUUCUGUUGGCGUAAUGGUAACGCGUCUCUCUCAUGAGGAGAAGACUGCGGGUUCGAGUCCCGUACGGAACG [C5U C30U C34A A36G] and GUUCUGUUGGCGUAAUGGUAACGCGUCUCUCUCCUAAGGAGAAAACUGCGGGUUCAAGUCCCGUACGGAACG [C5U C30U G44A G56A] cannot be ordered by yeast fitness: ≤ 0.5 for the first, ≤ 0.5 for the second.

GUUCUGUUGGCGUAAUGGUAACGCGUCUCCGCCCUACGGAGAAGACUGCGGGUGCGAGUCCCGUACGGAACG [C5U C31G U32C A37C U54G] and GUUCUGUUGGCGUAAUGGUAACGCGUCUCCUUCUUAAGGAGAAGACUGCGGGUUCGAGUCCCGUACGGAACG [C5U C31U C34U] cannot be ordered by yeast fitness: ≤ 0.5 for the first, ≤ 0.5 for the second.

GUUCUGUUGGCGUAAUGGUAACGCGUCUCCUUCCUAAGAAGAAGACUGCGGGUUCGAGUCCCGUACCGAACG [C5U C31U G39A G67C] and GUUCUCUUGGAGUAAUGGUAACGCGUCUCCGUCCUCAGGAGAAGACUGCGGGUUCGAGUGCCGUACGGAACG [C5U G6C C11A C31G A36C C60G] cannot be ordered by yeast fitness: ≤ 0.5 for the first, ≤ 0.5 for the second.

First: GUUCUGUUGACGUAAUGGUAAUGCGUCUCCCUCCUAAGAAGAAGACUGCGGGUUCGGGUCCCGUACGGAACG [C5U G10A C22U G39A A57G]
Second: GUUCUGUUGGCAUAAUGGUAACGCGUCUCCCUCCUAAGGAGAAGACUGCGGGUUCGAGUCCCGUACGGCACG [C5U G12A A69C]
The yeast fitness of the first is lower: ≤ 0.5 for the first, 0.724 for the second.
